Taken from: PubChem BioAssay AID1259289 (Sanger Institute, 2017)
Here is an unselected part of 794 deposited reagents. 16 of all reagents (2%) were called active. 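Active marks cell loss from silencing alone; drug synergy shows only in the synergy scores, not the calls.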 No viability above 1 is reported: the scale is capped. Further read-outs or replicates are left out here. No sequences are given here. Not given: the amount of reagent, the time to read-out.

Purpose: 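Kinase-wide silencing tested with three anchor drugs to reveal synergistic lethal pairs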 (primary screen)
Cell system: human LS513 colorectal cancer cells
Reagents: siRNA pool against human genes
Conditions: anchor drug BYL719 at 1 µM, cetuximab at 5 µg/ml or trametinib at 10 nM, or DMSO vehicle alone; exposure time not given
Read-out: 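Survival versus non-targeting pool for each arm averaged over replicates, robust z-score in the arm with DMSO only, and synergy scores for BYL719, cetuximab or trametinib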
Direction: robust z-score, siRNA alone (DMSO): higher = more viable cells; strongly negative means essential; viability with DMSO vs control: higher = more viable cells
Units: viability with DMSO vs control in fraction of control
Rule for the call: 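Called essential when silencing alone under DMSO gives a robust z-score below -3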
Meaning of the calls: active = essential (knock-down alone); inactive = not essential

For BRDT (bromodomain testis associated), what does the deposit list?
robust z-score, siRNA alone (DMSO): 0.561; viability with DMSO vs control: 1; outcome: inactive

For CHEK2 (checkpoint kinase 2), how do the results read?
robust z-score, siRNA alone (DMSO): 0.561; viability with DMSO vs control: 1; outcome: inactive

How did the screen score ASPM (assembly factor for spindle microtubules)?
robust z-score, siRNA alone (DMSO): 0.561; viability with DMSO vs control: 1; outcome: inactive

For AK7 (adenylate kinase 7), what does the deposit list?
robust z-score, siRNA alone (DMSO): 0.264; viability with DMSO vs control: 0.958; outcome: inactive

What is on record for RYK (receptor like tyrosine kinase)?
robust z-score, siRNA alone (DMSO): 0.561; viability with DMSO vs control: 1; outcome: inactive

How did the screen score DYRK3 (dual specificity tyrosine phosphorylation regulated kinase 3)?
robust z-score, siRNA alone (DMSO): 0.247; viability with DMSO vs control: 0.955; outcome: inactive

For PRKAB2 (protein kinase AMP-activated non-catalytic subunit beta 2), what was measured?
robust z-score, siRNA alone (DMSO): -2.96; viability with DMSO vs control: 0.501; outcome: inactive

For CDKL3 (cyclin dependent kinase like 3), what was measured?
robust z-score, siRNA alone (DMSO): 0.561; viability with DMSO vs control: 1; outcome: inactive

For CDKL2 (cyclin dependent kinase like 2), what was measured?
robust z-score, siRNA alone (DMSO): -0.0537; viability with DMSO vs control: 0.913; outcome: inactive

For PFKP (phosphofructokinase, platelet), how do the results read?
robust z-score, siRNA alone (DMSO): 0.0712; viability with DMSO vs control: 0.93; outcome: inactive

2 entries from above, reformatted.
Gene | robust z-score, siRNA alone (DMSO) | viability with DMSO vs control | outcome
CDKL3 (cyclin dependent kinase like 3) | 0.561 | 1 | inactive
CDKL2 (cyclin dependent kinase like 2) | -0.0537 | 0.913 | inactive

Additional records follow:
For CKMT1B (creatine kinase, mitochondrial 1B), what was measured?
robust z-score, siRNA alone (DMSO): -0.113; viability with DMSO vs control: 0.904; outcome: inactive

Which result is listed for PDIK1L (PDLIM1 interacting kinase 1 like)?
robust z-score, siRNA alone (DMSO): 0.561; viability with DMSO vs control: 1; outcome: inactive

For CDK5R2 (cyclin dependent kinase 5 regulatory subunit 2), how do the results read?
robust z-score, siRNA alone (DMSO): 0.561; viability with DMSO vs control: 1; outcome: inactive

What did the screen give for TLK2 (tousled like kinase 2)?
robust z-score, siRNA alone (DMSO): 0.561; viability with DMSO vs control: 1; outcome: inactive

What is on record for PANK4 (pantothenate kinase 4 (inactive))?
robust z-score, siRNA alone (DMSO): -1.81; viability with DMSO vs control: 0.663; outcome: inactive

For SPHK1 (sphingosine kinase 1), what does the deposit list?
robust z-score, siRNA alone (DMSO): 0.291; viability with DMSO vs control: 0.962; outcome: inactive

For SRPK3 (SRSF protein kinase 3), what was measured?
robust z-score, siRNA alone (DMSO): 0.561; viability with DMSO vs control: 1; outcome: inactive

For CAMK2A (calcium/calmodulin dependent protein kinase II alpha), what was measured?
robust z-score, siRNA alone (DMSO): 0.532; viability with DMSO vs control: 0.996; outcome: inactive

With EPHA2 (EPH receptor A2), how do the results read?
robust z-score, siRNA alone (DMSO): 0.561; viability with DMSO vs control: 1; outcome: inactive
